# Data: PubChem BioAssay AID2685 (National Center for Advancing Translational Sciences (NCATS), 2010)
# The list shows a part of the results. These are further read-outs of the screen, such as a control signal, another cell line or another target. No call is given for them. Compounds called inactive in the main read-out are mostly missing here. The note in brackets gives the kind of curve behind each potency; many fits are weak.
# Assay: qHTS Assay for Lipid Storage Modulators in Drosophila S3 Cells;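 as to cell number change: cells counted by Cell Tracker Red CMTPX staining in the red channel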
# Details: BODIPY lipid droplet fluorescence, 18-24 h; for cell number change: measured here: cell count max response, cells fed with added oleic acid
# Method in brief: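 Drosophila S3 cells loaded with oleic acid (400 uM, as added) and compounds at several concentrations; lipid droplets imaged by 488-nm laser-scanning cytometry, 500–530 nm intensity and object ratio to cell channel. Percent activity normalized to 20 uM Triacsin C.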
# [1] = measured here: cell number channel AC50, cells fed with added oleic acid
# [2] = measured here: lipid fluorescence (Fed channel) AC50, cells fed with added oleic acid
Structure (SMILES),cell number change [%],AC50 [1],AC50 [2]
Cc1ccc(C(=O)O/N=C/C2=C(Cl)c3ccccc3CC2)cc1,-49.1,"4.11 µM [falling, full curve]","4.11 µM [falling, full curve]"
CCc1cccc(C)c1NC(=O)Cn1nc(C)n2cccc2c1=O,11.9,–,–
Cc1ccc(N2CCN(CC(O)COc3ccc([N+](=O)[O-])cc3)CC2)cc1 (stereo not drawn),-24.2,"1.84 µM [rising, single point]","2.59 µM [rising, single point]"
COc1cc(C(=O)Nc2nc(-c3ccc(Cl)cc3)c(C)s2)ccc1OCC(=O)Nc1ccc(F)cc1,-23.1,–,"2.91 µM [falling, full curve, poor fit]"
CC(C)COc1nc2ccccc2nc1C(C#N)C(=O)NC1CCCCC1 (stereo not drawn),99.5,"29.1 µM [rising, single point]","0.231 µM [rising, full curve, poor fit]"
COCC(C)NC(=O)CCS(=O)(=O)c1nc(-c2ccc(OC)cc2)cc(C(F)(F)F)n1 (stereo not drawn),13.3,–,"16.4 µM [falling, partial curve]"
O=C(CSC1=NS(=O)(=O)c2cc(Cl)ccc2N1)NCc1ccccc1,–,"0.13 µM [falling, full curve, poor fit]","1.84 µM [rising, single point]"
C#CCOCCOCCOCCNc1nc(N2CCN(C(=O)CCCCCCCCCCNC(=O)[C@H](CCCCN)n3cc(C[C@@H](C)CC)nn3)CC2)nc(N2CCN(C(=O)CCCCCCCCCCNC(=O)[C@H](CCCN=C(N)N)n3cc(C[C@@H](C)CC)nn3)CC2)n1,-61.6,"2.91 µM [falling, full curve, poor fit]","29.1 µM [falling, partial curve, poor fit]"
COCCn1c(SCC(=O)Nc2cc(C)on2)nnc1-c1ccco1,24.5,–,"20.6 µM [falling, single point]"
CCn1c(=O)n(CC)c2cc(N3CCCC3)c(NC(=O)c3ccccc3OC)cc21,-23,–,"0.00651 µM [falling, full curve, poor fit]"
N#Cc1c(SCC(=O)Nc2ccc(Cl)cc2Cl)sc2c(O)cc(=O)[nH]c12,12,–,"25.9 µM [rising, partial curve, poor fit]"
CCCS(=O)(=O)c1c(S(=O)(=O)CCC)c2c(C)cccn2c1C(=O)N/N=C/c1cc(O)cc(O)c1,-21.3,–,"20.6 µM [falling, single point]"
CC(=O)N(C)c1ccc(NC(=S)NCC(C)C)cc1,24.3,–,–
O=C(NCC1CCCO1)c1cc2ccccc2oc1=O (stereo not drawn),16.3,–,–
COc1cc(C#Cc2ccc3cc(CCCO)oc(=O)c3c2)cc(OC)c1,–,–,"0.146 µM [rising, single point]"
CCOC(=O)NC(=S)Nc1ccc(OC)cc1,-20.1,–,–
CN(C)c1ccc(/C=N\S(=O)(=O)c2ccccc2)cc1,-22.6,–,"0.366 µM [falling, full curve]"
O=S(=O)(c1cccc(NC(=S)N2CCN(c3ccccc3)CC2)c1)C(F)F,14.4,–,"3.26 µM [rising, single point]"
COc1ccc(CNC(=O)CCN2C(=S)NC(C)(C)CC2C)cc1 (stereo not drawn),–,"6.51 µM [rising, single point]",–

# Sorted by SMILES length (rising): some entries from above
Structure (SMILES),cell number change [%],AC50 [1],AC50 [2]
Cc1ccc(C(=O)O/N=C/C2=C(Cl)c3ccccc3CC2)cc1,-49.1,"4.11 µM [falling, full curve]","4.11 µM [falling, full curve]"
O=S(=O)(c1cccc(NC(=S)N2CCN(c3ccccc3)CC2)c1)C(F)F,14.4,–,"3.26 µM [rising, single point]"
COCC(C)NC(=O)CCS(=O)(=O)c1nc(-c2ccc(OC)cc2)cc(C(F)(F)F)n1 (stereo not drawn),13.3,–,"16.4 µM [falling, partial curve]"

# (list continues)

Structure (SMILES),cell number change [%],AC50 [1],AC50 [2]
CCS(=O)(=O)c1ccc2oc(Nc3ccccc3Br)nc2c1,-6.58,"1.16 µM [falling, full curve]","0.92 µM [falling, full curve]"
COc1ccc(/C=C/C(=O)NCc2cn(C)nc2C)cc1COc1ccc(Br)cc1,-21.6,–,"23.1 µM [falling, single point]"
CCOC(=O)C1CCN(C(=O)CCCn2nc(C)c3c(C)n(-c4ccc(C)cc4)nc3c2=O)CC1,4.18,–,–
O=C(c1ccc2c(=O)n(-c3ccccc3)c(=S)[nH]c2c1)N1CCCCC1,-49.3,"14.6 µM [falling, single point]","9.2 µM [falling, partial curve]"
O=C(Cn1ncc2c([nH]c3ccccc32)c1=O)N1CCN(c2ccc(F)cc2)CC1,29.5,–,–
Cc1nnc2ccc(-c3ccc(NS(=O)(=O)c4ccc(Cl)s4)cc3)nn12,-13.2,–,"0.58 µM [falling, single point]"
CC(=O)Nc1ccc(C(=O)OCCCOC(=O)c2ccc(NC(C)=O)cc2)cc1,2.51,–,"1.84 µM [rising, partial curve]"
COc1ccccc1NC(=O)C(C)OC(=O)C1COc2ccccc2O1 (stereo not drawn),-12.9,–,"0.00411 µM [falling, full curve, poor fit]"
O=C(CN1C(=O)C2C3C=CC(C4CC34)C2C1=O)Oc1ccccc1 (stereo not drawn),52.2,"3.26 µM [falling, single point]","3.26 µM [falling, single point]"
CC/C(=N\O)c1c(O)c2c(n(-c3ccccc3)c1=O)CCCC2,-28.5,–,"5.8 µM [falling, full curve]"
COc1cccc(OC)c1C(=O)Nc1ccccc1N1CCCC1,21.7,–,"9.2 µM [rising, partial curve]"
CCC(=O)NC(=S)Nc1cccc(-c2nc3ncccc3o2)c1,-16.7,"0.13 µM [falling, full curve, poor fit]","0.259 µM [rising, partial curve, poor fit]"
CCc1ccc(NC2=CC(=O)CC(c3ccco3)C2)cc1 (stereo not drawn),107,"23.1 µM [rising, single point]",–
C#CC(C)OC(=O)C(C)NC(=O)c1ccccc1 (stereo not drawn),6.51,–,"0.259 µM [falling, full curve, poor fit]"
NC(=O)c1sc2nc3c(c(-c4cccs4)c2c1N)CCCCC3,–,"0.13 µM [rising, full curve, poor fit]",–
CC1Oc2ccccc2OC1C(=O)Nc1nccs1 (stereo not drawn),36.9,"20.6 µM [rising, partial curve, poor fit]","5.8 µM [rising, full curve, poor fit]"
Cc1cc(C)cc(NC(=O)Cn2cc3c(n2)CCCCC3)c1,-25.4,–,"16.4 µM [falling, single point]"
Cc1ccc(NC2=CC(=O)CC(C)(C)C2)cc1C,5.01,–,–
CCOC(=O)c1nnn(-c2nc(OC)nc(N(C)C)n2)c1-c1ccccc1,-26.5,–,"25.9 µM [falling, single point]"

Structure (SMILES),cell number change [%],AC50 [1],AC50 [2]
O=C(CSc1nc(=O)n2ccccc2n1)Nc1ccc2c(c1)OCCO2,-16.8,–,"2.06 µM [falling, partial curve]"
CCN1CCN(S(=O)(=O)Cc2ccccc2)CC1,-90.5,"29.1 µM [falling, single point]","29.1 µM [falling, single point]"
Cc1ccccc1C(=O)Nc1ccc(S(=O)(=O)N2CC(C)OC(C)C2)cc1 (stereo not drawn),-1.8,–,"29.1 µM [falling, single point]"
CCN(CC(=O)NCc1ccc(Cl)cc1)C(=O)/C=C/c1cc(OC)c(OC)c(OC)c1,-3.97,–,–
C/C(=N\NC(=S)Nc1cc(S(=O)(=O)N2CCOCC2)ccc1Cl)c1ccccc1F,13.3,"2.06 µM [rising, single point]",–
CCOC(=O)N1CCN(C(=O)C2CC(=O)N(c3ccc(C)cc3)C2)CC1 (stereo not drawn),-3.41,"7.31 µM [falling, partial curve, poor fit]","0.58 µM [falling, single point]"
CCCOc1cccc(C(=O)NCCNC(=O)c2ccc(C)nc2)c1,2.52,–,–
Cn1cnnc1SCc1ccc(C(=O)N/N=C/c2cccs2)cc1,25.2,"0.0291 µM [rising, full curve, poor fit]","4.11 µM [rising, partial curve, poor fit]"
COc1ccc([C@H]2CC(=O)C=C(c3cccc(CO)c3)C2)cc1,-11.8,–,"0.00411 µM [falling, full curve, poor fit]"
c1cc2c3c(cccc3c1)NC1(CCCCC1)N2,-19.3,–,"16.4 µM [falling, partial curve]"
CCOc1ccc(NC(=O)CCN2CCN(C)CC2)cc1,3.44,–,–
CC/C(=C/c1sc2ccc(C)cc2[n+]1CCCS(=O)(=O)[O-])SC,-36.6,"32.6 µM [falling, single point]",–
COc1ccc([C@H]2CC(=O)C=C(c3c(C)cc(C)cc3C)C2)cc1,–,"2.91 µM [rising, single point]","3.26 µM [falling, partial curve]"
Cc1ccc(CN2CCNC(=O)C2CC(=O)N(C)Cc2cnccn2)cc1 (stereo not drawn),-25.4,–,–
c1coc(-c2ncc[nH]2)c1,11,–,"2.06 µM [rising, partial curve]"
Cc1cc(C)c(NC(=O)CNC(=O)[C@@H]2CCCN2C(=O)c2cccs2)c(C)c1,32.1,"14.6 µM [rising, partial curve, poor fit]","29.1 µM [rising, single point]"
CC(=O)c1ccccc1OCC(=O)Nc1cccc(S(=O)(=O)N2CCCC2)c1,15.4,–,"8.2 µM [rising, partial curve]"
COc1ccc(CN(CCC(c2ccccc2)c2ccc(OC(C)C)cc2)C(=O)CCl)cc1OC (stereo not drawn),-32.1,"6.51 µM [falling, partial curve]","9.2 µM [falling, partial curve, poor fit]"
O=C(c1cccc(C(F)(F)F)c1)N1CCOC12CCN(c1ncc(C(F)(F)F)cc1Cl)CC2,-24.4,–,–
